Data from PMC3103643 (Journal of natural products, 2011).

System: HT-29 cells
Test: Mitochondrial transmembrane potential
Assay type: cell-based
Conditions: Homo sapiens, HT-29, read-out: MTP (mitochondrial transmembrane potential) IC50 (positive control), HT-29 cells, positive control

`CN[C@@H]1C[C@H]2O[C@@](C)([C@@H]1OC)n1c3ccccc3c3c4c(c5c6ccccc6n2c5c31)C(=O)NC4` [staurosporine] showed an IC50 of 2 nM.
